Reference: PMC12401969, “The gut microbiota protein BOC1 exhibits immune checkpoint inhibitor-like activity by inhibiting myeloid-derived suppressor cell differentiation” (Frontiers in Immunology, 2025)
Results are given in words; binding and its absence hold for the method and conditions named. Some results given as binding are weak or reduced against the parent protein; the word gives no strength. Sequences can lack the tags named with a protein.

Columns and labels:
[1] = molecular target: T1, biotinylated CD200R1 (UniProt Q8TD46 29-265, biotin (site not stated)); assay: AlphaScreen or HTRF; AlphaLISA competition; 0.3 nM CD200R1-(biot) and 3 nM CD200-His, or the CD200R1-(biot)/BOC1-His complex, with a dose response of CD200-Fc (0.1 to 100 nM), 1 h at room temperature; read as % dissociation of the complex; both purified
T1 construct: CD200R1 (CD200 receptor 1), soluble biotinylated protein; Held on streptavidin Donor beads in the AlphaLISA; also called CD200R1-(biot)
T1 sequence (looked up): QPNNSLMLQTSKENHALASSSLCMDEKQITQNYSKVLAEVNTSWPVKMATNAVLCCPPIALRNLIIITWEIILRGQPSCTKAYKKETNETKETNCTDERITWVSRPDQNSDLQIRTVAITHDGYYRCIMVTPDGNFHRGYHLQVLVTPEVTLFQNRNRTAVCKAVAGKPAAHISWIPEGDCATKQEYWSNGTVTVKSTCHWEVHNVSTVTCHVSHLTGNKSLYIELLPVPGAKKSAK

[2] = molecular target: T1, biotinylated CD200R1; assay: AlphaScreen or HTRF; AlphaLISA competition; CD200-His/CD200R1-(biot) (3 nM each by the legend; 0.3 nM CD200R1-(biot) and 3 nM CD200-His by the methods) with untagged 50 aa-long BOC1 peptides at 0.01 to 1 µM, 1 h at room temperature; read as % inhibition of the complex; both purified
[3] = molecular target: T1, biotinylated CD200R1; assay: AlphaScreen or HTRF; AlphaLISA; CD200R1-(biot)/CD200-His or CD200R1-(biot)/BOC1-His complex (each protein at 3 nM) with an anti-CD200R1 antibody (30 nM); read as remaining activity and % inhibition; both purified

Measured: binding

B1: CD200-His (ligand, UniProt P41217 31-232, looked up)
chain: QVQVVTQDEREQLYTPASLKCSLQNAQEALIVTWQKKKAVSPENMVTFSENHGVVIQPAYKDKINITQLGLQNSTITFWNITLEDEGCYMCLFNTFGFGKISGTACLTVYVQPIVSLHYKFSEDHLNITCSATARPAPMVFWKVPRSGIENSTVTLSHPNGTTSVTSILHIKDPKNQVGKEVICQVLHLGTVTDFKQTVNKG
notes: CD200 (OX-2), soluble His-tagged protein; Held on anti-6His Acceptor beads in the AlphaLISA; also called His-tagged CD200
binds: all assays above
